Laboratory results taken from the supplement of paper PMC12067093, “Discovery and optimisation of a covalent ligand for TRIM25 and its application to targeted protein ubiquitination” (Chemical Science, 2025).
Some of the results follow.

By UniProt entry, the sequences of proteins in these tests, tags left out. Where a name states a change or a piece, a line headed by the entry shows the natural chain unless it says otherwise.
UniProt O43396: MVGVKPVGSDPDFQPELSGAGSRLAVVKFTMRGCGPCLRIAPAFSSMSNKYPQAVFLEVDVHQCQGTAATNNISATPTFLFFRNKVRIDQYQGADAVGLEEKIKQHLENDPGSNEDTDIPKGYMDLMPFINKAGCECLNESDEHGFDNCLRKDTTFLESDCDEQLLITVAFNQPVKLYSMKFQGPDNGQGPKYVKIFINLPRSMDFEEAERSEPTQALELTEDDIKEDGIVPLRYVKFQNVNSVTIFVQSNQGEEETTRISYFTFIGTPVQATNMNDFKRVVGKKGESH
UniProt Q8NBS9: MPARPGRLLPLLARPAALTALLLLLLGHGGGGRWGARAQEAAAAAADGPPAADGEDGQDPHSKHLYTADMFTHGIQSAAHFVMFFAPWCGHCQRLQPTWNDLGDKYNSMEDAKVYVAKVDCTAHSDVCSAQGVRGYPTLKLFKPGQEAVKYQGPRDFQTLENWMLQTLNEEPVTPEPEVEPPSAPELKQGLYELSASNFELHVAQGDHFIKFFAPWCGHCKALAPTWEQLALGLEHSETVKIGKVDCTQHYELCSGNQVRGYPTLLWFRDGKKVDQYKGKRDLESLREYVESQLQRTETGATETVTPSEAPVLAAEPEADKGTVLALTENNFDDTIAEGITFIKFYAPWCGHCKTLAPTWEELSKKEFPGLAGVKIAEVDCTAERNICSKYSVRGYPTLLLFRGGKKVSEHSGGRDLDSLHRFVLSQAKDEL
UniProt Q9BZF9: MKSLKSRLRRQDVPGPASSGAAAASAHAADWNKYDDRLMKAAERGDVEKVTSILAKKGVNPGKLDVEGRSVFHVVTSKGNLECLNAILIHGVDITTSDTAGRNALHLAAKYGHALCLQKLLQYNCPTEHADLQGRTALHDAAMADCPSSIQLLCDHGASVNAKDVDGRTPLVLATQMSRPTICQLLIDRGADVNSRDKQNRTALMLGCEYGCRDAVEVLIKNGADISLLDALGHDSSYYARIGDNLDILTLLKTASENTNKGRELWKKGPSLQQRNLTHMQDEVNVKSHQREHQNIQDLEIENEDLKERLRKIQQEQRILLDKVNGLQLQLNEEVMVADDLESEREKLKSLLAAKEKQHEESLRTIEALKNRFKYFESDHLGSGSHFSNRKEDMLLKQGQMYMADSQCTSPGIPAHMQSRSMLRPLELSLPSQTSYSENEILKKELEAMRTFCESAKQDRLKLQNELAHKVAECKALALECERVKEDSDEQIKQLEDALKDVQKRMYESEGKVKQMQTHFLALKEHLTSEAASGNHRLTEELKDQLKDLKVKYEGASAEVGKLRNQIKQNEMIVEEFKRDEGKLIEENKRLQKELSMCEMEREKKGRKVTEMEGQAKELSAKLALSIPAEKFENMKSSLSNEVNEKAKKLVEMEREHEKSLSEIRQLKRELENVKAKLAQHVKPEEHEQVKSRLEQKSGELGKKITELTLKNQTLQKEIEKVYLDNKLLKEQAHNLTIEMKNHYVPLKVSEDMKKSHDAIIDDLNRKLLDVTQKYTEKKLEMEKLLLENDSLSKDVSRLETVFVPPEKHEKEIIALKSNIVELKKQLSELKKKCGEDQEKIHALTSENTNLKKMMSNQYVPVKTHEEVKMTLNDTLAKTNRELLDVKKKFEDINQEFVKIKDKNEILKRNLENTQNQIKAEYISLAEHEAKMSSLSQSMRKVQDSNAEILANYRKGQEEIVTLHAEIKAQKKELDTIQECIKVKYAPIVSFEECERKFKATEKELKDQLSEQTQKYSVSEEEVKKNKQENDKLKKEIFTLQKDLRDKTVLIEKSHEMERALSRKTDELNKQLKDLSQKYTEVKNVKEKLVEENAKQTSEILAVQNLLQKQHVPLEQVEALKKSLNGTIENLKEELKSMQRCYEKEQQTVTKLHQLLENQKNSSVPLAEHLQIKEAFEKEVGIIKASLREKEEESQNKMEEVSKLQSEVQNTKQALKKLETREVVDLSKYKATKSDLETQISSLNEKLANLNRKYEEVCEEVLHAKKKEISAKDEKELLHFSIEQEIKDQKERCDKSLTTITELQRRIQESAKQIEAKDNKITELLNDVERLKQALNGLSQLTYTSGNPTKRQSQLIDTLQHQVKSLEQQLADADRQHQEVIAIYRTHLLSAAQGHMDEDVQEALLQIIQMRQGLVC
UniProt Q9C0C9: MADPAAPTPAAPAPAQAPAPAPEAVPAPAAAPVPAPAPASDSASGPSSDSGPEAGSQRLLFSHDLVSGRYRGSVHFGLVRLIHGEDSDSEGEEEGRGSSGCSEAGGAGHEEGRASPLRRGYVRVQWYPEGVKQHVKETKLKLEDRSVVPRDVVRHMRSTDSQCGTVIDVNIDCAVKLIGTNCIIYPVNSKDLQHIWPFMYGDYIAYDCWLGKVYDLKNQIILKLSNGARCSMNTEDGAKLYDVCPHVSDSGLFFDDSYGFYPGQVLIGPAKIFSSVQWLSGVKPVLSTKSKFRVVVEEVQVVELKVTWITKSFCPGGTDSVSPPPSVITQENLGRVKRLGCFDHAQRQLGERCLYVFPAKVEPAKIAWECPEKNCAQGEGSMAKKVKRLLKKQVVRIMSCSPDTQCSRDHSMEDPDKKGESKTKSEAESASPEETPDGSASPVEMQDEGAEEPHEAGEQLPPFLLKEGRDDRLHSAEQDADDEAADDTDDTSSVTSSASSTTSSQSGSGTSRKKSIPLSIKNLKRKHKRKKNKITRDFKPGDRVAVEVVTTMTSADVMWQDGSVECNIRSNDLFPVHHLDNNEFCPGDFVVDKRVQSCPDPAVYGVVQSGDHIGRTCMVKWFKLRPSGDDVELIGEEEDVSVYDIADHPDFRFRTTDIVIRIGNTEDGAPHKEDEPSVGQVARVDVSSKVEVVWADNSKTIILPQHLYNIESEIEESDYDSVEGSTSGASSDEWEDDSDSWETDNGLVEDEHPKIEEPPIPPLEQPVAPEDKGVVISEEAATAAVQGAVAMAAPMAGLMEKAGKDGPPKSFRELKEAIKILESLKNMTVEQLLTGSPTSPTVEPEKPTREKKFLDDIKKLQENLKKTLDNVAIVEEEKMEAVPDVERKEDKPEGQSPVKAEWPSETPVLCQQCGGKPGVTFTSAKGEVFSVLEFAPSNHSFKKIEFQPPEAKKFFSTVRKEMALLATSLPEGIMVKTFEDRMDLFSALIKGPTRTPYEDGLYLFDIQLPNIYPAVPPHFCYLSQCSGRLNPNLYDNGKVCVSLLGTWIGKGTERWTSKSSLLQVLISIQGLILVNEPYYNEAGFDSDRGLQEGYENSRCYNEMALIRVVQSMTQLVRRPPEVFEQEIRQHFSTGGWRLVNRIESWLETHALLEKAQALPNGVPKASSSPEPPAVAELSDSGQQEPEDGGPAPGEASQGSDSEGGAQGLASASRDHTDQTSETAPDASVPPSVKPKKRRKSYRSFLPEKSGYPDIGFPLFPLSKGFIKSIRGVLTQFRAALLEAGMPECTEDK
UniProt Q9NPD8: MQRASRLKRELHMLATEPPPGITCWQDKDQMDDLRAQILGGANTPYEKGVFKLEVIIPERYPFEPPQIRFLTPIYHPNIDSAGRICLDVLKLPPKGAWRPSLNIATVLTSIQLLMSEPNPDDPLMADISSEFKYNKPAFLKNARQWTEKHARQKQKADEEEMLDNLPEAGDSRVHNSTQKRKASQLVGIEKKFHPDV
UniProt Q7Z3V4: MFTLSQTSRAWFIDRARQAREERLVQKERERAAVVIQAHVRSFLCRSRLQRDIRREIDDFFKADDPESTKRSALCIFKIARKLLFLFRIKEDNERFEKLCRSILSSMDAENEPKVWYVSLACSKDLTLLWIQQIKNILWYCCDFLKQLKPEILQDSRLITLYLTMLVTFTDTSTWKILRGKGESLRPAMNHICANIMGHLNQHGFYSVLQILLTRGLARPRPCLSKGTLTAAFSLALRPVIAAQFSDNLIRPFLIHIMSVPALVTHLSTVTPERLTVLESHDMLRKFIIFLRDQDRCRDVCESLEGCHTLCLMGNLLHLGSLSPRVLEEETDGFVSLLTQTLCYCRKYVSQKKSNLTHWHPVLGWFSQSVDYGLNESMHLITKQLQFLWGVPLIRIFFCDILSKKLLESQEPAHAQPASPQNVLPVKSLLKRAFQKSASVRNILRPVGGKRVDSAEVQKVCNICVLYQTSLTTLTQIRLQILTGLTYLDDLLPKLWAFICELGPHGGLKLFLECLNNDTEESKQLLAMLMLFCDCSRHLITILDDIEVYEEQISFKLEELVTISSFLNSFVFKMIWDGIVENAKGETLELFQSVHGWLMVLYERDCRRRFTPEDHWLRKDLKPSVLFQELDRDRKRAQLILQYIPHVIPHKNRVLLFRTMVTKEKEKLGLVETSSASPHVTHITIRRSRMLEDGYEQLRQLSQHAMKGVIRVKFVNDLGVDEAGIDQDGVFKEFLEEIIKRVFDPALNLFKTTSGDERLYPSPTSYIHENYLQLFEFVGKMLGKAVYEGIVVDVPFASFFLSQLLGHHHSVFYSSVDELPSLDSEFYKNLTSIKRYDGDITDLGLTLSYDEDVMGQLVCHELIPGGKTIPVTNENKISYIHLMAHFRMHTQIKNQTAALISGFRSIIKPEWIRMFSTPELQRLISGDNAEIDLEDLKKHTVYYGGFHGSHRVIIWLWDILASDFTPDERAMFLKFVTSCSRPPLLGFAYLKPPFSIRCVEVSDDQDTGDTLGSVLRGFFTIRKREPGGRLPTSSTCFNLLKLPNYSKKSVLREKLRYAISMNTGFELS
UniProt Q9H832: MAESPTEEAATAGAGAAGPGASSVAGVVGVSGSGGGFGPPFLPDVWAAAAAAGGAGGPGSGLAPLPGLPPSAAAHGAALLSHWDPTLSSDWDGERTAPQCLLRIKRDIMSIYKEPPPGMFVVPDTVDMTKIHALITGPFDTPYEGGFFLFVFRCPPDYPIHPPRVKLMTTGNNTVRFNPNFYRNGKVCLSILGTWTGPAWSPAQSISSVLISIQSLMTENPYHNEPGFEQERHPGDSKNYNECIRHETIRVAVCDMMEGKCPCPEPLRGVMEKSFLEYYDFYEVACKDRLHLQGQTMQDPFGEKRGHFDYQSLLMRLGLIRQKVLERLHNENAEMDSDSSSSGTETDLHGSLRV
UniProt Q16881, whole entry, looked up: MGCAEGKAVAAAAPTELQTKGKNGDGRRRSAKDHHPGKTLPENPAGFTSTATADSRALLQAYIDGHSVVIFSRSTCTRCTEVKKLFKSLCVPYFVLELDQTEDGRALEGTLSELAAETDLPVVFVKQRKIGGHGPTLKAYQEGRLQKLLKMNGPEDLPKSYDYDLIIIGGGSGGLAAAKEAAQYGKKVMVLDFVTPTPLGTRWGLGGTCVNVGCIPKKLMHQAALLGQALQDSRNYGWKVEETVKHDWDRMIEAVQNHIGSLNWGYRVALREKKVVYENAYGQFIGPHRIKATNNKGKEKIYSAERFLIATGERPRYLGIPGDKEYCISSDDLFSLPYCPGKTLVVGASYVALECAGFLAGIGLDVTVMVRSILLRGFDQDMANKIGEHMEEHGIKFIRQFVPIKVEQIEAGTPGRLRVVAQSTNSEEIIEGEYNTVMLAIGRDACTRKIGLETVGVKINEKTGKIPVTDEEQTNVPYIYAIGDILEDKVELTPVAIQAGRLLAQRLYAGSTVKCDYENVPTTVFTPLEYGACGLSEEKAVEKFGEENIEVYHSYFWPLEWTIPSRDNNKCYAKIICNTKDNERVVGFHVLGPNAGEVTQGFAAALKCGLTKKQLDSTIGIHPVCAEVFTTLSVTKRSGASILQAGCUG
UniProt Q3KQV9: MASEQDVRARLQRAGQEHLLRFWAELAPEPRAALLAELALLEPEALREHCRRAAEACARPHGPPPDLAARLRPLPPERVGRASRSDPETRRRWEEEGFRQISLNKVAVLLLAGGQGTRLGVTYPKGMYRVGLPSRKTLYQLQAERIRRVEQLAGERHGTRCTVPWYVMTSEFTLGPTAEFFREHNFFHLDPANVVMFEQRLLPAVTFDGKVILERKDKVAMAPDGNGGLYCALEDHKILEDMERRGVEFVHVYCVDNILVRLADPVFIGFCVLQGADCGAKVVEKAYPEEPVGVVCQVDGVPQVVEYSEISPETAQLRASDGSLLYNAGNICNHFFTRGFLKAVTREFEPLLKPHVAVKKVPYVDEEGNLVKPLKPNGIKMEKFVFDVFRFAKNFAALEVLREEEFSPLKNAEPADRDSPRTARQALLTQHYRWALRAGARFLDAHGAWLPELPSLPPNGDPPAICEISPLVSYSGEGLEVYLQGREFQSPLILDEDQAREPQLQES
UniProt Q16763: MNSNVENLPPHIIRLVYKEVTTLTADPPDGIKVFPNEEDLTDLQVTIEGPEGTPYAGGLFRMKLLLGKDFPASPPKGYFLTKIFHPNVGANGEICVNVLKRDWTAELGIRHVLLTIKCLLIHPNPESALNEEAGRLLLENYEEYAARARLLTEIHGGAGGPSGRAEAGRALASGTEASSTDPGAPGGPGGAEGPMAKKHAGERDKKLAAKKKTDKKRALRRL
UniProt O14933: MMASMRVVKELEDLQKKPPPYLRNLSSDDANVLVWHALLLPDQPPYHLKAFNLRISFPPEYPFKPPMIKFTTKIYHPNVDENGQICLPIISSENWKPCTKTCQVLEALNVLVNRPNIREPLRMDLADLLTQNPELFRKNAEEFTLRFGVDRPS

Compound: CC1Cc2ccccc2N1C(=O)C1CCCN(C1)C(=O)CCl (mixture of isomers) [TRIM25 ligand 11 (diastereomer mixture)]
Experiment: probe-labelled cysteine peptide fold change vs DMSO (competition) (log2 fold change); higher = less target engagement (more negative = stronger competition)
Settings: 50 µM; THP-1; incubation time: 4 h
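Also: competitive chemoproteomic profiling in live THP-1 cells with an iodoacetamide desthiobiotin (IA-DTB) probe, comparing probe-labelled peptide intensities in compound-treated cells against DMSO-treated controls.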

Row | Target | probe-labelled cysteine peptide fold change
1 | TXNL1_O43396_135_AGCECLNESDEHGFDNCLR (UniProt O43396) | -0.0528
2 | TXNDC5_Q8NBS9_381_IAEVDCTAER (UniProt Q8NBS9) | -0.082
3 | UACA_Q9BZF9_1258_KYEEVCEEVLHAK (UniProt Q9BZF9) | 0.0395
4 | UBA6_A0AVT1_231_EIFISNITQANPGIVTCLENHPHKLETGQFLTFR | -0.118
5 | UBE2O_Q9C0C9_353_CLYVFPAK (UniProt Q9C0C9) | -0.188
6 | UBR4_Q5T4S7_2222_HTACNEQQR (UniProt Q5T4S7) | 0.0264
7 | UBE2T_Q9NPD8_24_ELHMLATEPPPGITCWQDKDQMDDLR (UniProt Q9NPD8) | -0.334
8 | UBE3B_Q7Z3V4_311_DVCESLEGCHTLCLMGNLLHLGSLSPR (UniProt Q7Z3V4) | -0.304
9 | UBE2Z_Q9H832_154_CPPDYPIHPPR (UniProt Q9H832) | -0.0316
10 | UBA52_P62987_115_CGHTNNLRPK (UniProt P62987) | -0.285
11 | UBA6_A0AVT1_682_IQSGHSLEGCFQVIK | 0.189
12 | UBR1_Q8IWV7_1197_IHVDLFDLESGEYLCPLCK (UniProt Q8IWV7) | 0.0549
13 | TXNRD1_Q16881_577_IICNTK (UniProt Q16881) | 0.851
14 | UAP1L1_Q3KQV9_50_AALLAELALLEPEALREHCR (UniProt Q3KQV9) | 0.0782
15 | UBE2S_Q16763_95_IFHPNVGANGEICVNVLK (UniProt Q16763) | 0.0512
16 | UBE2L6_O14933_102_TCQVLEALNVLVNRPNIREPLR (UniProt O14933) | -0.337

Taken from the results shown for reference:
Row | Target | probe-labelled cysteine peptide fold change
9 | UBE2Z_Q9H832_154_CPPDYPIHPPR (UniProt Q9H832) | -0.0316
10 | UBA52_P62987_115_CGHTNNLRPK (UniProt P62987) | -0.285
